Earlier results, collected in US20230117831A1, “MULTI-FUNCTIONAL CHIMERIC MOLECULES” (THE BROAD INSTITUTE, INC., priority 2020, published 2023).
Some results were stated once for a whole list of compounds, not compound by compound.

Amino acid sequences for entries named in this document (tags omitted).
UniProt P00519, whole entry, species assumed: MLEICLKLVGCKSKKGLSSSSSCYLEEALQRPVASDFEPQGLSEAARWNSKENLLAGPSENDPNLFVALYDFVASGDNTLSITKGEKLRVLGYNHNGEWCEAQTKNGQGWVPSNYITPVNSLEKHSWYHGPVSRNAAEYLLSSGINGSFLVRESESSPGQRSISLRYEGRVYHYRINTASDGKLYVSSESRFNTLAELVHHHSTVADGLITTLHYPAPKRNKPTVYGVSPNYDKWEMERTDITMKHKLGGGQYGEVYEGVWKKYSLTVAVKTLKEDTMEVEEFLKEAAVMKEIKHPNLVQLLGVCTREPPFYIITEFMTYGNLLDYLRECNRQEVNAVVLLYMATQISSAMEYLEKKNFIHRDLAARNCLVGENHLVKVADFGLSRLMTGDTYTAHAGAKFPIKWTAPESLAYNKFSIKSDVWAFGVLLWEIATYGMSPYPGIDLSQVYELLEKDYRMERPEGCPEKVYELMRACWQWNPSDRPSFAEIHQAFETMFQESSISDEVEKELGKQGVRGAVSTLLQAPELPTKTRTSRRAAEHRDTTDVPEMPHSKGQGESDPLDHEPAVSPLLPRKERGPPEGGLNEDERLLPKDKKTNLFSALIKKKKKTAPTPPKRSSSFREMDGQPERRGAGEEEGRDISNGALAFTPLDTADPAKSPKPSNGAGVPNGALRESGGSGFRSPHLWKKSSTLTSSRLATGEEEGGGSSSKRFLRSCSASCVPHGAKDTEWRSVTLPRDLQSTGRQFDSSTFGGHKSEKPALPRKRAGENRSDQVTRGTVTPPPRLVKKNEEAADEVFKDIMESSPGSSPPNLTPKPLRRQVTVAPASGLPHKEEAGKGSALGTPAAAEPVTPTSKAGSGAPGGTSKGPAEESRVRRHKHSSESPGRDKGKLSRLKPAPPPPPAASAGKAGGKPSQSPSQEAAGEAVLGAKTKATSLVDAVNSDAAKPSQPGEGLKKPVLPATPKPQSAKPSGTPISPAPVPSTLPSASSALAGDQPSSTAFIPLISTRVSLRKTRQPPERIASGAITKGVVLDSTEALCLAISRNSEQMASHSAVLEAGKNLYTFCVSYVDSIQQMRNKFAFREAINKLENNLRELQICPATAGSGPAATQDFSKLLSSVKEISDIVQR

Biological target: ABL (Homo sapiens, UniProt P00519)
Conditions: read-out: affinity of binding to Abl; cited from earlier work

dihydropyrazol
Kd: 100 to 200 nM
